From PubChem BioAssay AID1671190 (National Center for Advancing Translational Sciences (NCATS), 2021)
Where “and” joins values, the source holds several entries; their conditions need not be identical. Equal values may be shown once. The whole screen tested about 580,000 compounds, of which about 6,100 (1.1%) were called active. The shares of active, inactive and inconclusive entries below differ from those in the screen. The call rests on the fitted dose curve; in most records, active means well fitted inhibition curve with a large enough effect; inconclusive means small, poorly fitted or top-dose-only effect, or another doubt; inactive means no such curve, though single readings can be large or run the other way. Potencies of inconclusive entries are doubtful fits and often do not repeat.

The chains behind the UniProt entries cited, without tags or fusion partners. Where a name states a change or a piece, a line headed by the entry shows the natural chain unless it says otherwise.
UniProt P18054: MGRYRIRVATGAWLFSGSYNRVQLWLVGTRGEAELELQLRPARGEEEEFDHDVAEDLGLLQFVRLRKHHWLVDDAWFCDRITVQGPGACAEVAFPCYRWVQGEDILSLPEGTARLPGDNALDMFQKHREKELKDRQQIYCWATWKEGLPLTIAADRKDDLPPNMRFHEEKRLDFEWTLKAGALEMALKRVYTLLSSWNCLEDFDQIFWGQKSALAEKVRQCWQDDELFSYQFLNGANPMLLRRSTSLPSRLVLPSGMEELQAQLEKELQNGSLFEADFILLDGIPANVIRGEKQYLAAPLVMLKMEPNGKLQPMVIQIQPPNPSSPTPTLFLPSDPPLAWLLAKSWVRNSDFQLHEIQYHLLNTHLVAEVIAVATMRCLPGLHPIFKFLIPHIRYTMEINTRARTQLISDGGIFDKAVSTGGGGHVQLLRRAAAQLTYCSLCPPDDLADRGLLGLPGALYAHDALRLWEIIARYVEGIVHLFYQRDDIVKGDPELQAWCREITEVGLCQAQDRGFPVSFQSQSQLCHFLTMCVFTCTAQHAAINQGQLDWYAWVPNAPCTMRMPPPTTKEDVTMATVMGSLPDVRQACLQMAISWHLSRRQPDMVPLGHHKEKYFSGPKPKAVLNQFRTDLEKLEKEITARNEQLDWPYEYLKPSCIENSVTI

Molecular target: Polyunsaturated fatty acid lipoxygenase ALOX12 (Homo sapiens) (UniProt P18054)
Experiment: Primary qHTS assay for inhibitors of human arachidonate 12S-lipoxygenase (ALOX12): Round 2
Conditions: purified 12hLO, xylenol orange hydroperoxide absorbance; activity change, negative = inhibition: at 108 µM (top of the series) unless noted
Procedure, shortened: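 Purified human 12hLO (150 nM final) in 25 mM Hepes, 0.01% Triton X-100, pH 7.0 was preincubated 15 min at room temperature with compound. Then 40 uM arachidonic acid was added, 30 min. Hydroperoxide was read by Fe-XO absorbance ratio 573/405 nm.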
On the % scale 0 is the no-effect control and ±100 the full control effect; potency means the concentration at half of the fitted maximal effect.

Row | SMILES | Potency | activity change, negative = inhibition
1 | CN1C(=O)C(C)(C)N(C(=O)c2cccc([N+](=O)[O-])c2)c2ccccc21 | inactive | 
2 | CCC(=O)c1cn(CC(=O)Nc2c(C)cccc2C)c2ccccc12 | inactive | 
3 | Cc1cc2c(c(=O)o1)C(c1ccc([N+](=O)[O-])o1)C(C#N)=C(N)O2 (stereo unspecified) | inconclusive: 2 µM [inhibitor, full curve, poor fit] | 
4 | COc1cc(NC(=O)C(C)Sc2ncnc3nc[nH]c23)cc(OC)c1OC (stereo unspecified) | inconclusive: 39.8 µM [inhibitor, partial curve, poor fit] | 
5 | CCn1c(C)cc(C(=O)COC(=O)c2csc(NCc3ccccc3)n2)c1C | inconclusive: 3.98 µM [inhibitor, partial curve, poor fit] | 
6 | CN(C)c1cccc(-c2nnc(SCCCC#N)o2)c1 | inconclusive: 0.501 µM [inhibitor, full curve, poor fit] | 
7 | Cc1ccccc1S(=O)(=O)NC(=O)C1(C)CCN1C(=O)CCc1ccc(Cl)cc1Cl (stereo unspecified) | inconclusive: 0.224 µM [inhibitor, full curve, poor fit] | 
8 | N#Cc1cccc(CNCc2ccc(CN3CCCC3)cc2)c1 | inconclusive: 8.91 µM [inhibitor, full curve] | 
9 | COc1ccc(C(=O)Oc2c(C)occc2=O)cc1OC | inactive | 
10 | O=C(NCc1ccc2c(c1)OCO2)C12CN(Cc3ccccc3)CC1C(c1cccc([N+](=O)[O-])c1)=NO2 (stereo unspecified) | inconclusive: 44.7 µM [inhibitor, partial curve, poor fit] | 
11 | OCC1(CC2CC2)CCCN(Cc2ccc(C(F)(F)F)nc2)C1 (stereo unspecified) | inconclusive: 70.8 µM [inhibitor, partial curve, poor fit] | 
12 | CCOC(=O)c1cccc(NC(=S)NCc2ccc(C)cc2)c1 | inconclusive: 50.1 µM [inhibitor, partial curve, poor fit] | 
13 | Cc1ccccc1C(=O)Oc1cc(N)n(S(C)(=O)=O)n1 | inactive | 
14 | COc1ccc(NC(=O)C(NC(=O)/C=C\c2ccc3c(c2)OCO3)c2ccc(C)cc2)cc1 (stereo unspecified) | inconclusive: 126 µM [inhibitor, partial curve, poor fit] | 
15 | CCc1nc(NC(=O)C2CC(=O)N(c3n[nH]c4cc(Br)ccc34)C2)sc1C (stereo unspecified) | inconclusive: 12.6 µM [inhibitor, full curve] | 
16 | CN1OC[C@@H]2CN(S(=O)(=O)c3cccc4ccccc34)[C@H](c3ccc(N4CCCCC4)cc3)C[C@@H]21 | inconclusive: 112 µM [inhibitor, single point] | 
17 | OCCCCNCc1ccc(OCc2ccccc2)cc1 | inactive | 
18 | COc1ccc(CN2CCC(C)(Oc3ccc(C(C)=O)cc3)C2)c2ccccc12 (stereo unspecified) | inconclusive: 44.7 µM [inhibitor, partial curve, poor fit] | 
19 | CN1CCC2(CC1)Cc1ccccc1CN([S+](C)(=O)[O-])C2 | inconclusive: 100 µM [inhibitor, partial curve, poor fit] | 
20 | O=C(N/N=C/C=C/c1ccco1)C(O)c1ccccc1 (stereo unspecified) | inconclusive: 22.4 µM [inhibitor, partial curve] | 
21 | O=[N+]([O-])c1cc(-c2csc(NC(CO)c3nc4ccccc4n3CCOCCO)n2)ccc1Cl (stereo unspecified) | inconclusive: 44.7 µM [inhibitor, partial curve, poor fit] | 
22 | CCOC(=O)c1ccc(S(=O)(=O)NNC(=O)c2cccc(N(C)C)c2)cc1 | inconclusive: 35.5 µM [inhibitor, partial curve, poor fit] | 

Row | SMILES | Potency | activity change, negative = inhibition
23 | CC(C)(Cc1cc(CC(C)(C)C(=O)O)cc(C(C)(C)C)c1)C(=O)O | inactive | 
24 | CCCCOc1ccc(C(N)C(=O)OCC)cc1 (stereo unspecified) | inconclusive: 15.8 µM [inhibitor, full curve, poor fit] | 
25 | Cc1nnc(-c2cc(C(=O)NCC(C)C)ccn2)n1CCc1ccccc1 | inconclusive: 6.31 µM [inhibitor, full curve, poor fit] | 
26 | COc1ccc(/C=C2/SC(=S)N(NS(=O)(=O)c3ccccc3)C2=O)cc1 | inconclusive: 50.1 µM [inhibitor, partial curve, poor fit] | 
27 | O=C(Nc1cnc(-c2cccc(Cl)c2)nc1)C1CCCO1 (stereo unspecified) | inactive | 
28 | C[C@@H]1CN(C(=O)Cc2cn3ccsc3n2)CC[C@@]1(O)C1CCOCC1 | inactive | 
29 | COc1ccc(C2CC(=O)CCN2S(=O)(=O)c2ccc(C)cc2)cc1 (stereo unspecified) | inconclusive: 89.1 µM [inhibitor, single point] | 
30 | CCc1cc2c(CN3CCN(c4ccc(F)cc4)CC3)cc(=O)oc2cc1O | inconclusive: 39.8 µM [inhibitor, partial curve, poor fit] | 
31 | COc1ccc(Cc2c(C3CCCCC3)nc3c4ccccc4ccn23)c(C)c1 | inactive | 
32 | O=C(CN1C(=O)CC(c2ccccc2)Sc2ccccc21)Nc1ccc(Br)cc1 (stereo unspecified) | inconclusive: 44.7 µM [inhibitor, partial curve, poor fit] | 
33 | CCOC(=O)c1ccc(NC(=O)CN(C)S(=O)(=O)c2ccc(OC)cc2)cc1 | inactive | 
34 | Cc1cc(N=Nc2ccc(Cl)cc2)cc(CN2CCCC2)c1O | inconclusive: 28.2 µM [inhibitor, partial curve, poor fit] | 
35 | Cc1c(C)n(CC(O)CN2CCOCC2)c2ccccc12 (stereo unspecified) | inconclusive: 1 µM [inhibitor, full curve, poor fit] | 
36 | O=C(CSc1ccccn1)Nc1cccc2ccccc12 | inactive | 
37 | Cc1cc2c(c(C)c1CCO[C@@H]1O[C@H](CO)[C@@H](O)[C@H](O)[C@H]1O)C(=O)[C@@H](C)[C@@H]2O | inactive | 
38 | Cc1cc(/C=C(\C#N)C(=O)NCCc2c[nH]c3ccccc23)c(C)n1C | inactive | 
39 | O=C(COCc1cc(-c2ccco2)on1)Nc1cc(Cl)ccc1O | inconclusive: 44.7 µM [inhibitor, partial curve, poor fit] | 
40 | CCOC(=O)C1=NNC(C(=O)c2ccccc2)C1c1ccc(C)cc1 (stereo unspecified) | inconclusive: 3.55 µM [inhibitor, full curve, poor fit] | 
41 | Cc1ccc2nc(SCc3nc(-c4cccc(Cl)c4)no3)[nH]c2c1 | inactive | 
42 | Fc1ccccc1COc1ccc(Br)cc1CNCc1ccncc1 | inconclusive: 50.1 µM [inhibitor, single point] | 
43 | CCCCS(=O)c1c(O)c2ccccc2[nH]c1=O (stereo unspecified) | inconclusive: 39.8 µM [inhibitor, partial curve, poor fit] | 
44 | O=C(O)c1cccc(-c2nc3ccccc3[nH]2)c1 | inactive | 

Four entries picked at random from the list so far:
Row | SMILES | Potency | activity change, negative = inhibition
24 | CCCCOc1ccc(C(N)C(=O)OCC)cc1 (stereo unspecified) | inconclusive: 15.8 µM [inhibitor, full curve, poor fit] | 
8 | N#Cc1cccc(CNCc2ccc(CN3CCCC3)cc2)c1 | inconclusive: 8.91 µM [inhibitor, full curve] | 
4 | COc1cc(NC(=O)C(C)Sc2ncnc3nc[nH]c23)cc(OC)c1OC (stereo unspecified) | inconclusive: 39.8 µM [inhibitor, partial curve, poor fit] | 
11 | OCC1(CC2CC2)CCCN(Cc2ccc(C(F)(F)F)nc2)C1 (stereo unspecified) | inconclusive: 70.8 µM [inhibitor, partial curve, poor fit] | 

Next compounds

Row | SMILES | Potency | activity change, negative = inhibition
45 | O=C(OCC(=O)c1ccccc1)C1=NN(c2ccccc2)C(=O)CC1 |  | inconclusive: -48.1% [inhibitor]
46 | N#C/C(=C/c1ccc(Br)s1)C(=O)NCCc1c[nH]c2ccccc12 | inactive | 
47 | Clc1ccc(C2NCCc3sccc32)cc1 (stereo unspecified) | inactive | 
48 | CCOC(=O)C1=C(COC(=O)c2ccccc2C(F)(F)F)NC(=O)NC1c1ccco1 (stereo unspecified) | inconclusive: 39.8 µM [inhibitor, partial curve, poor fit] | 
49 | O=C(C1CC1)N(C1CCOCC1)C1CCN(S(=O)(=O)c2ccccc2)CC1 | inactive | 
50 | CCn1c(-c2ccc[nH]c2=O)nc2ccccc21 | inconclusive: 2.82 µM [inhibitor, full curve, poor fit] | 
51 | O=C1Nc2cc(C(=O)N3CCN(c4ccc(F)cc4)CC3)ccc2NC1CSCc1cccc(F)c1 (stereo unspecified) | inconclusive: 35.5 µM [inhibitor, partial curve, poor fit] | 
52 | Cn1c(=O)c2c(-c3ccccc3)n3c(c2n(C)c1=O)C(c1ccc([N+](=O)[O-])cc1)Nc1ccccc1-3 (stereo unspecified) |  | inconclusive: -48.6% [inhibitor]
53 | CN(C)C(CNC(=O)c1cc(S(=O)(=O)N(C)c2ccccc2)ccc1Cl)c1cccs1 (stereo unspecified) | inactive | 
54 | CCOc1ccc(C2c3c(oc4cc(C)c(C)cc4c3=O)C(=O)N2CCCN(C)C)cc1OC (stereo unspecified) | inconclusive: 5.01 µM [inhibitor, full curve, poor fit] | 
55 | CCCn1c(C)cc(C(=O)COc2ccc(C)nc2[N+](=O)[O-])c1C | inactive | 
56 | FC(F)(F)c1ccc(CN2CCN(Cc3ccco3)CC2)cc1 | inconclusive: 0.891 µM [inhibitor, full curve] | 
57 | Cc1cc(C)c(-c2nc3ncccc3[nH]2)[nH]1 | inconclusive: 126 µM [inhibitor, single point] | 
58 | Nc1ccccc1C(=O)NCc1ccc(F)cc1 | inconclusive: 112 µM [inhibitor, single point] | 
59 | COc1ccc(CC(=O)N(Cc2ccsc2)C2CC2)cc1 | inactive | 
60 | CC(C)NC(=O)Nc1cccc(-c2noc(-c3cccs3)n2)c1 | inconclusive: 126 µM [inhibitor, single point] | 
61 | CCOCCCN1C(=O)CN(C2CCCCCC2)C(=O)C1c1ccc(OCC)c(OC)c1 (stereo unspecified) | inconclusive: 11.2 µM [inhibitor, partial curve, poor fit] | 
62 | COc1ccc(N(Cc2cc3cc(OC)ccc3[nH]c2=O)S(C)(=O)=O)cc1 | inconclusive: 44.7 µM [inhibitor, partial curve, poor fit] and inconclusive: 50.1 µM [inhibitor, partial curve, poor fit] | 
63 | COc1ccc(OC)c(N/C=C/C(=C(C#N)C#N)N(C)C)c1 | inactive | 
64 | Cc1cccc(C)c1OCc1nnc2c3cnn(C)c3ncn12 | inconclusive: 50.1 µM [inhibitor, full curve, poor fit] | 
65 | COc1ccc(N2CCN(C(c3ccccc3OC)c3nnnn3C3CCCC3)CC2)cc1 (stereo unspecified) | inconclusive: 44.7 µM [inhibitor, partial curve, poor fit] | 
66 | CC(=O)Nc1ccc(CC(=O)N2CCc3c(nc4cc(-c5ccccc5)[nH]n4c3=O)C2)cc1 | inconclusive: 3.98 µM [inhibitor, full curve] | 
